Source: publication PMC7795741
The exact form of at least one protein or probe is not confirmed. Results from cells or extracts need not show a direct contact. A negative result means that nothing was seen under these conditions.

Chains of the proteins cited; added tags and fusions are not shown. Chains listed by the source or under a name are the forms on record and can include a tag or linker.
STAT3 (Pelteobagrus fulvidraco (yellow catfish)), one chain, as listed by the source: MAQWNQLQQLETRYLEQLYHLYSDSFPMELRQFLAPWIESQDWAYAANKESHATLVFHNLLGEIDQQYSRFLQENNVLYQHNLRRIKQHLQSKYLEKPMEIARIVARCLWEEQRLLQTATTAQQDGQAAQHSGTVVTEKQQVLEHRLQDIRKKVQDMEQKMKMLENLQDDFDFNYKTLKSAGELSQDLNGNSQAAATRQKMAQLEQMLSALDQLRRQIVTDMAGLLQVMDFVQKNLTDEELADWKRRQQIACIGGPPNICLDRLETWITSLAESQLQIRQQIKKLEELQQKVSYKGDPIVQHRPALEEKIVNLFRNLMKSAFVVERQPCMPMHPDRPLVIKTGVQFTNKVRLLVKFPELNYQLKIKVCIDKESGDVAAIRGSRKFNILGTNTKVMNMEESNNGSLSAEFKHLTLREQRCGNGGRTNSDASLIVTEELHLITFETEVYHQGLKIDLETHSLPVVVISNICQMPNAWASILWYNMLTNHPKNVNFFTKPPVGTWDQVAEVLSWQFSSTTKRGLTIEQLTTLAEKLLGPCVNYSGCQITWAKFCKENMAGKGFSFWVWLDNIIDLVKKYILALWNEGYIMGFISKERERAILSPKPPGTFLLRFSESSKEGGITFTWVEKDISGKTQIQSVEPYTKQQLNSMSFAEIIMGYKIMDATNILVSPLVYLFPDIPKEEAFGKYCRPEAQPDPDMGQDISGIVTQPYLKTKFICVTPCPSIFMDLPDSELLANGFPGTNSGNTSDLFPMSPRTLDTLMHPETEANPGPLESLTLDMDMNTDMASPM

Tests used:
Experiment in all cases: EMSA with unlabeled self-competition
[1] = tested on: PPARγ (Pelteobagrus fulvidraco (yellow catfish)); settings: HEK293T nuclear extract, EMSA with HEK293T nuclear protein (pcDNA3.1, PPARα, PPARγ or STAT3 transfected), biotin probes, pH and temperature not given (method of cited Xu et al.), protein in an extract, protein details: C-terminal FLAG
[2] = tested on: PPARα (Pelteobagrus fulvidraco (yellow catfish)); settings: HEK293T nuclear extract; EMSA with HEK293T nuclear protein (pcDNA3.1, PPARα, PPARγ or STAT3 transfected), biotin probes; pH and temperature not given (method of cited Xu et al.); protein in an extract; protein details: C-terminal FLAG
[3] = tested on: STAT3 (Pelteobagrus fulvidraco (yellow catfish)); settings: HEK293T nuclear extract, EMSA with HEK293T nuclear protein (pcDNA3.1, PPARα, PPARγ or STAT3 transfected), biotin probes, pH and temperature not given (method of cited Xu et al.), protein in an extract, protein details: C-terminal FLAG

Q: Does “CCATGACCTTTAACCCCTAA (double strand) [cyp17α-PPARγ (-89/-70)]” bind ([1]; PPARγ overexpression increased band)?
A: binds

Q: Does “CCTGTATTTTCACCTAGTTT (double strand) [sf-1-PPARα (-413/-396)]” bind [2]?
A: no binding

Q: Does “GCATGTGCGTCAAAAGTCCACA (double strand) [cyp17α-PPARα (-881/-864)]” bind [2]?
A: no binding

Q: Does “GGAAAATTCCAGAAAATGAATC (double strand) [cyp17α-STAT3 (-1669/-1660)]” bind [3]?
A: no binding

Q: Does “GTGAATTGACTTTTGTAGAGT (double strand) [sf-1-PPARγ (-1396/-1388)]” bind [1]?
A: no binding

Q: Does “TAAACACTTAAGGAAAATACAAA (double strand) [sf-1-STAT3 (-1106/-1096)]” bind ([3]; self-competitor competes, but STAT3 overexpression reduced band brightness)?
A: binds
